Results published in PubChem BioAssay AID504847 (National Center for Advancing Translational Sciences (NCATS), 2011).
Where “and” joins values, the source holds several entries; their conditions need not be identical. Equal entries are not always repeated. In all, about 400,000 compounds went through this assay and about 3,700 (0.93%) were called active. This list was built around the results that the source calls inconclusive (neither active nor inactive); the mix of calls is not that of the screen. Calls come from the whole dose curve; as a rule, active = well fitted inhibition curve with a large enough effect; inconclusive = small, poorly fitted or top-dose-only effect, or another doubt; inactive = no such curve, though single readings can be large or run the other way. Where the call is inconclusive, the potency comes from a doubtful curve fit. More than one record can exist for a structure, and the calls need not agree.

Protein sequences, listed by entry. Tags and fused reporters are not part of them. Lines headed by an entry give the natural chain unless they say otherwise; changes in a name come on top.
UniProt P11473: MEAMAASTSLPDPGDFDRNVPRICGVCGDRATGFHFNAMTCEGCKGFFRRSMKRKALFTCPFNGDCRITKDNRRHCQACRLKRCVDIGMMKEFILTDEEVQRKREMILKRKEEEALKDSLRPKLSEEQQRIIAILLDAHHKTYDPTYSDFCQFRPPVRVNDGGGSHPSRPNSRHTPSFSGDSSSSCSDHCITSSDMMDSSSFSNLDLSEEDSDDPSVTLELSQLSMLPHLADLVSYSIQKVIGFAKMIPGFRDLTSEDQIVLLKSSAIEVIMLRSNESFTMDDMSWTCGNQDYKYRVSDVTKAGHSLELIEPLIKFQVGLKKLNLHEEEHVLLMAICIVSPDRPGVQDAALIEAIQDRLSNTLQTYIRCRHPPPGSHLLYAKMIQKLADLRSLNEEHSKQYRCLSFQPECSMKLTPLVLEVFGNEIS

Target: Vitamin D3 receptor (Homo sapiens) (UniProt P11473)
Assay: Inhibitors of the vitamin D receptor (VDR): qHTS
Conditions: VDR-SRC2-3 peptide fluorescence polarization, 2 h; max response, negative = inhibition: stronger effect = lower value
How it was run: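 Fluorescence polarization assay measuring small-molecule disruption of VDR binding to the coregulator peptide SRC2-3. Compounds were pin-transferred (23 nl) into the reagent mix and incubated 2 h at room temperature before reading.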
% is set by controls: 0 for no effect and ±100 for the full control effect; potency is the fitted concentration of half-maximal effect.

Max response, negative = inhibition, inactive:
CS(=O)(=O)c1ccc(Cl)c(NC(=O)C2CC(=O)N(Cc3ccco3)C2)c1 (configuration not stated) 1.97%, CCOC(=O)c1c(S(=O)(=O)N2CCN(c3ccccc3OC)CC2)c(C)n(C)c1C 3.96%, CC(NC(=O)Nc1ccccc1O)(C(F)(F)F)C(F)(F)F 9.7%, CCN(C(=O)COC(=O)C1CCC(C(C)(C)C)CC1)c1c(N)n(Cc2ccccc2)c(=O)[nH]c1=O (configuration not stated) -7.34%, C(=N\Nc1nc(Nc2ccccc2)nc(Nc2ccccc2)n1)/c1cccnc1 0.12%, CN(C)c1ccc(CNCc2cccnc2)cc1 -21.4%, Cc1ccc(Nc2ncnc3sc(C)c(C)c23)cc1 2.51%, CCOc1ccccc1NC(=O)c1c(NCc2ccc(OC)c(OC)c2OC)sc2c1CCC(C)C2 (configuration not stated) -4.44%, Cn1c2c(c3cnc4cc(Cl)ccc4c31)CNCC2 -12.3%, CN1CCc2c(sc3c2C(=O)NC(c2ccc(-c4cccc(Cl)c4)o2)N3)C1 (configuration not stated) 6.43%, CSc1cccc(NC(=O)C2CCN(S(=O)(=O)c3ccc4[nH]c(=O)ccc4c3)CC2)c1 -5.75%, COc1ccc(NC(=O)CS(=O)(=O)c2cn(CC(=O)N3CCOCC3)c3ccccc23)cc1OC -0.122%, C=CCOc1ccc(CC(=O)O)cc1Cl -4.11% and -2.07%, Cc1nc(/N=C(\N)NC(=O)N2c3ccccc3Sc3ccccc32)nc2ccccc12 -7.83%, CCOC(=O)Cc1csc(SCC(=O)NC2CCCC2)n1 9.36%, CC(=O)c1ccc(OCC(O)CN2CCN(Cc3ccc4c(c3)OCO4)CC2)cc1 (configuration not stated) -17.4%, C#CCOCCOCCOCCNc1nc(N2CCOCC2)nc(N2CCN(C(=O)[C@H]([C@@H](C)CC)n3cc([C@@H](N)CO)nn3)CC2)n1 -10.4%, COC(=O)c1c(NC(=O)/C=C/c2ccc(OC)c(OC)c2)sc2c1CCC2 -18.9%

Potency, inconclusive:
CC1=C(C#N)C(=O)OC(C)(C)C1 50.1 µM [inhibitor, partial curve], O=C(c1ccco1)N(CCC(c1ccccc1)c1ccco1)Cc1ccco1 (configuration not stated) 79.4 µM [inhibitor, single point], COc1cc2c3c(c1)/C(=C1/SC(NC(C)=O)=NC1=O)C(=O)N3C(C)(C)C=C2C 0.794 µM [inhibitor, full curve, poor fit], COc1cccc(C(=O)N2CCN(Cc3cn[nH]c3-c3ccc(F)cc3F)CC2)c1 89.1 µM [inhibitor, single point], COc1cc(/C=C2/C(=O)NN(c3ccc(C)c(Cl)c3)C2=O)cc([N+](=O)[O-])c1O 56.2 µM [inhibitor, partial curve, poor fit], Nc1cccc2c1C(=O)N(C(=O)c1ccc(S(=O)(=O)N3CCCCCC3)cc1)C2=O 14.1 µM [inhibitor, full curve, poor fit], CC(C)c1ccc(C2(O)C(=O)Nc3cc(Br)ccc32)c(O)c1 (configuration not stated) 7.94 µM [inhibitor, partial curve, poor fit], H-CNTRRGIHFGPGQALYTTGI-OH 56.2 µM [inhibitor, partial curve], COc1ccc(C2(c3ccc(OC)cc3)NC(=O)N(CC(=O)N3CCOCC3)C2=O)cc1 0.708 µM [inhibitor, full curve, poor fit], COc1ccc(-c2nc3cc([N+](=O)[O-])ccc3o2)cc1 70.8 µM [inhibitor, single point], Cc1cc(N2CCOCC2)nc(-c2ccc(Br)cc2)n1 11.2 µM [inhibitor, partial curve, poor fit], COc1ccccc1C(=O)Nc1nc2ccccc2[nH]1 79.4 µM [inhibitor, single point], O=C1/C(=C/c2cccnc2)Oc2cc(OS(=O)(=O)c3ccc(F)cc3)ccc21 89.1 µM [inhibitor, partial curve, poor fit], Cc1cccc(CS(=O)(=O)c2ncc(Cl)c(C(=O)NCc3ccc4c(c3)OCO4)n2)c1 5.01 µM [inhibitor, full curve, poor fit], CCc1cc(=O)oc2cc(C)c(CN3CCCCC3)c(O)c12 89.1 µM [inhibitor, single point], C[C@H](CO)N1C[C@H](C)[C@@H](CN(C)Cc2ccc(-c3ccccc3)cc2)Oc2c(NC(=O)Nc3ccc4c(c3)OCO4)cccc2C1=O 89.1 µM [inhibitor, single point], CCC/C=C1/CCCOC(C(=O)NCCOC)(C(F)(F)F)C1 (configuration not stated) 89.1 µM [inhibitor, partial curve], O=c1c(C(c2ccc(Br)cc2)c2c(O)nc3n(c2=O)CCS3)c(O)nc2n1CCS2 22.4 µM [inhibitor, full curve], Cc1ccc(S(=O)(=O)NC(C(=O)Oc2ccc3ccc(=O)oc3c2)c2ccccc2)cc1 (configuration not stated) 50.1 µM [inhibitor, partial curve, poor fit], CCCCC/C=C\C/C=C\C/C=C\CCCCCCC(=O)NC(C)C(=O)O (configuration not stated) 79.4 µM [inhibitor, partial curve, poor fit], COc1cc(C(=O)NC2CC(C)(C)Cc3c2cnn3-c2ccccc2)cc(OC)c1OC (configuration not stated) 89.1 µM [inhibitor, single point], Cc1nc(-c2ccccc2Cl)sc1C(=O)/C=C/N(C)C 89.1 µM [inhibitor, single point], CC(=O)c1ccc(OCC(O)CN2CCN(Cc3ccc4c(c3)OCO4)CC2)cc1 (configuration not stated) 79.4 µM [inhibitor, partial curve, poor fit], CCCCn1c(N)c(N(CC(C)C)C(=O)CSc2ccc3c(c2)OCCO3)c(=O)[nH]c1=O 100 µM [inhibitor, single point], Cc1ccc(C(=O)CC2(O)C(=O)N(Cc3ccccc3)c3ccccc32)c(C)c1 (configuration not stated) 50.1 µM [inhibitor, partial curve, poor fit], COC(C(=O)NC1CCCCCCC1)c1ccccc1 (configuration not stated) 89.1 µM [inhibitor, single point], Cc1ccc(CNC(=O)CN(c2cccc([N+](=O)[O-])c2)S(C)(=O)=O)cc1 89.1 µM [inhibitor, partial curve, poor fit], C(=C\c1ccccc1)/C=N/Nc1nc(N2CCOCC2)nc(N2CCOCC2)n1 44.7 µM [inhibitor, partial curve, poor fit], COc1ccc(Cl)cc1-n1c(=S)sc2c(=O)[nH]c(SCC(=O)C(C)(C)C)nc21 50.1 µM [inhibitor, partial curve, poor fit], COc1ccc(/C=C2/C(=O)N(Cc3ccccc3)N=C2C)cc1 39.8 µM [inhibitor, partial curve], N#C/C(=C\c1ccccc1)C(=O)NCc1ccc(F)cc1 79.4 µM [inhibitor, single point], Cc1ccc(C(=O)OCC(=O)Nc2ccccc2Cl)c(O)c1 12.6 µM [inhibitor, partial curve, poor fit], CNc1nc(-c2c[nH]c3ccccc23)cs1 39.8 µM [inhibitor, single point], Cc1c(N2C(=O)C(=O)/C(=C(/O)c3ccccc3)C2c2ccc(F)cc2)c(=O)n(-c2ccccc2)n1C (configuration not stated) 79.4 µM [inhibitor, single point], CCS(=O)(=O)c1ncc(Cl)c(C(=O)N(Cc2ccccc2)c2ccc(OC)cc2)n1 22.4 µM [inhibitor, partial curve, poor fit], Cc1c(F)cccc1NC(=O)CCC(=O)O 89.1 µM [inhibitor, partial curve, poor fit], CCC1CCc2sc(C(=O)NCC(c3ccc(OC)cc3)N3CCOCC3)cc2C1 (configuration not stated) 56.2 µM [inhibitor, partial curve, poor fit], O=C(CSc1nc2ccccc2nc1N1CCCC1)Nc1ccc(Cl)cc1 89.1 µM [inhibitor, partial curve, poor fit]

Potency, active:
O=C1NC2CCCCC2C(=O)N1OS(=O)(=O)c1ccccc1 (configuration not stated) 15.8 µM, Cc1cccn2c(=O)c(/C=C(\C#N)C(=O)NC3CCS(=O)(=O)C3)c(Oc3ccc(F)cc3)nc12 (configuration not stated) 20 µM, NS(=O)(=O)c1cccc2c1c([N+](=O)[O-])cc1nc(O)c(O)nc12 39.8 µM, O=C(c1ccncc1)N1CCC[C@@]2(CCN(c3cccc(-c4ccccc4)c3)C2)C1 39.8 µM, O=C(/C=C/c1cccc(Cl)c1)c1nc2ccccc2[nH]1 44.7 µM, C=CC(=O)c1ccc2ccccc2c1 1.78 µM, Cc1ccc(/C=C2/C(=O)N(c3ccccc3)C(=S)N2C)o1 79.4 µM, O=C(c1ccccc1)c1ccccc1N1C(=O)C=CC1=O 25.1 µM, CN(C)CCC(=O)C(Cc1ccccc1)c1ccccc1 (configuration not stated) 44.7 µM, CCOC(=O)/C(C#N)=C1\C(=O)N(Cc2ccccc2)c2ccccc21 28.2 µM, COc1ccc(C(c2c(C)[nH]n(C(N)=S)c2=O)C(C#N)C#N)cc1 (configuration not stated) 28.2 µM
